Measured values: patent US5314998A, “Organic solvent-soluble metal-azo and metal-azomethine dyes” (Minnesota Mining and Manufacturing Company, priority 1992, dated 1994)

How the values were obtained:
[1] = Thermal transfer of dye, donor sheet A to receptor sheet B, image density
[2] = Thermal transfer of dye, donor sheet B to receptor sheet B, image density

Row | Compound | Image Density (Reflectance Optical Density) ([1]; Level 1) | Image Density (Reflectance Optical Density) ([1]; Level 2) | Image Density (Reflectance Optical Density) ([1]; Level 3) | Image Density (Reflectance Optical Density) ([1]; Level 4) | Image Density (Reflectance Optical Density) ([1]; Level 5) | Image Density (Reflectance Optical Density) ([1]; Level 6) | Image Density (Reflectance Optical Density) ([1]; Level 7) | Image Density (Reflectance Optical Density) ([1]; Level 8) | Image Density (Reflectance Optical Density) ([2]; Level 1) | Image Density (Reflectance Optical Density) ([2]; Level 2) | Image Density (Reflectance Optical Density) ([2]; Level 3) | Image Density (Reflectance Optical Density) ([2]; Level 4) | Image Density (Reflectance Optical Density) ([2]; Level 5) | Image Density (Reflectance Optical Density) ([2]; Level 6) | Image Density (Reflectance Optical Density) ([2]; Level 7) | Image Density (Reflectance Optical Density) ([2]; Level 8)
1 | [6-[[(2-hydroxy-5-nitrophenyl)imino]methyl]-3,5-dimethoxyphenolato-N,O,O](3-butylpyridine)(2,4-pentanedionato-O,O)chromium [Compound 35] | 0.04 | 0.08 | 0.12 | 0.15 | 0.18 | 0.23 | 0.26 | 0.31 |  |  |  |  |  |  |  | 
2 | CC(=O)C=C(C)[O-].CCc1ccncc1.[Cr+3].[O-]c1ccccc1N=Nc1ccccc1[O-] [Compound 31, [[2,2-azobis[phenolato]](-2)-N,O,O](2,4-pentanedionato-O,O)(4-ethylpyridine)chromium] | 0.09 | 0.18 | 0.28 | 0.36 | 0.44 | 0.50 | 0.59 | 0.67 | 0.08 | 0.15 | 0.24 | 0.31 | 0.41 | 0.51 | 0.59 | 0.62
